Laboratory results published in PubChem BioAssay AID1347131 (National Center for Advancing Translational Sciences (NCATS), 2019).
Among all 410,000 compounds or so, about 2,000 (0.49%) were called active. This list was built around the results that the source calls inconclusive (neither active nor inactive); the mix of calls is not that of the screen. Calls follow the shape of the full dose curve; tested in HEK293 reporter line. Potencies of inconclusive entries are doubtful fits and often do not repeat.
Potency is read from the fitted curve at half-maximal effect.

Assay: qHTS Assay for Foot and Mouth Disease Virus Antivirals: Primary Screen against the MLPCN compound library; also: nearly all actives have a fitted effect of over 55% in size
Settings: FMDV antiviral cell-based qHTS; activity, negative = inhibition: at 57.9 µM (top of the series)
In the case of `CS(=O)(=O)c1nc(-c2ccc(F)cc2)cc(C(F)(F)F)n1`, the Potency is reported as inconclusive: 28.2 µM [inhibitor, partial curve, poor fit].
In the case of `COc1cc(S(=O)(=O)Nc2ccc(C)cc2)ccc1N=Cc1c(C)c(C#N)c(=O)n(C)c1O`, the Potency is reported as inconclusive: 39.8 µM [inhibitor, single point].
In the case of `CC(C)Cn1c(N)c(C(=O)COC(=O)/C=C/c2cccs2)c(=O)n(C)c1=O`, the Potency is reported as inconclusive: 17.8 µM [inhibitor, partial curve, poor fit].
In the case of `COC(=O)c1[nH]c2ccc(C)cc2c1NC(=O)CN1CCN(c2ccccc2)CC1`, the “activity, negative = inhibition” value is reported as inactive: -25.1%.
In the case of `O=C(Nc1nc2ccc(F)cc2s1)c1nc(SCc2ccccc2F)ncc1Cl`, the Potency is reported as inconclusive: 11.2 µM [inhibitor, partial curve, poor fit].
In the case of `Cc1ccc(-n2cc(C(=O)c3ccc(F)cc3)nn2)cc1Cl`, the Potency is reported as inconclusive: 8.91 µM [inhibitor, partial curve].
In the case of `Cc1ccc(C)c2[nH]c(=O)c(CN(Cc3ccco3)C(=O)Nc3ccccc3)cc12`, the Potency is reported as inconclusive: 25.1 µM [inhibitor, partial curve, poor fit].
In the case of `COc1ccc(C=CC(=O)c2c(OC)cc(OC)c(OC)c2O)cc1`, the Potency is reported as inconclusive: 17.8 µM [inhibitor, partial curve, poor fit].
With `Cc1c(C(=O)Nc2cccc(C(F)(F)F)c2)oc2ccc(S(=O)(=O)N3CCC4(CC3)OCCO4)cc12` the Potency was inconclusive: 15.8 µM [inhibitor, partial curve, poor fit].
In the case of `CCCCn1c(=O)c(CCC(=O)OC(C)C(=O)Nc2cccc(Cl)c2Cl)nc2ccccc21` (configuration not stated), the “activity, negative = inhibition” value is reported as inactive: -31.2%.
In the case of `CCN(CC)S(=O)(=O)c1ccc(NC(=O)c2ccc3c(=O)n4c(nc3c2)CCCCC4)cc1`, the Potency is reported as inconclusive: 28.2 µM [inhibitor, partial curve, poor fit].
For `CC(NC(=O)c1ccc(NC(=O)c2nsc3ccccc23)cc1)c1ccccc1` (configuration not stated), the Potency was inconclusive: 17.8 µM [inhibitor, single point].
With `Cc1cccc(C(=O)Nc2cccc(C(=O)OCc3cc(=O)n4nc(C(C)C)sc4n3)c2)c1` the Potency was inconclusive: 10 µM [inhibitor, partial curve, poor fit].
In the case of `Brc1ccc(OCc2ccccc2)c(CNCc2ccncc2)c1`, the Potency is reported as active: 20 µM.
With `CCOC(=O)c1c(C)[nH]c(C)c1C(=O)COc1ncnc2cc([N+](=O)[O-])ccc12` the Potency was inconclusive: 15.8 µM [inhibitor, partial curve, poor fit].
In the case of `CC(=O)C1=C(O)C2(C)c3c(O)c(C)c(O)c(C(C)=O)c3OC2CC1=O` (configuration not stated), the Potency is reported as inconclusive: 10 µM [inhibitor, partial curve, poor fit].
In the case of `Oc1c(N=Nc2ccc(F)cc2)ccc2ccccc12`, the Potency is reported as inconclusive: 14.1 µM [inhibitor, partial curve, poor fit].
For `CCc1ccc(NC(=O)C2CCC(CNS(=O)(=O)c3ccc4c(c3)CC(C)N4C(C)=O)CC2)cc1` (configuration not stated), the Potency was inconclusive: 17.8 µM [inhibitor, partial curve, poor fit].
With `CCOC(=O)c1ccc(N2CCN(c3ccccc3F)CC2)c(NC(=O)Nc2ccc(Cl)c(Cl)c2)c1` the Potency was inconclusive: 25.1 µM [inhibitor, partial curve, poor fit].
With `CCOC(=O)[C@]12Cc3cc(OC)ccc3[C@H]1N(C1CCCCC1)C(=O)c1cc(OC)ccc12` the Potency was inconclusive: 12.6 µM [inhibitor, partial curve, poor fit].
With `CC(C)Cn1c(N)c(C(=O)COC(=O)c2cnc(Cl)c(Cl)c2)c(=O)n(C)c1=O` the activity, negative = inhibition was inconclusive: -34% [inhibitor].
With `Cc1ccc(S(=O)(=O)N2CCCC2)cc1C(=O)NCc1ccccc1CN1CCCC1` the Potency was inconclusive: 2 µM [inhibitor, full curve].
For `CC(C)Oc1ccc(C(=O)Nc2ccc3c(c2)CCCN3C(=O)c2cccs2)cc1`, the Potency was inconclusive: 22.4 µM [inhibitor, partial curve, poor fit].
With `CC1(C)Cc2c(cnn2-c2ccccc2)C(=O)/C1=N\NC(=O)c1ccccc1O` the Potency was inconclusive: 17.8 µM [inhibitor, single point].
In the case of `CCCNS(=O)(=O)c1ccc(OCC(=O)N2CCN(Cc3ccc4c(c3)OCO4)CC2)cc1`, the Potency is reported as inconclusive: 7.08 µM [inhibitor, partial curve].
For `Clc1cccc(N2CCN(c3ncnc4c3nc3n4CCCCC3)CC2)c1`, the Potency was inconclusive: 11.2 µM [inhibitor, partial curve, poor fit].
With `CCOC(=O)C1CCCN(c2nc(C)nc3c2oc2ccccc23)C1` (configuration not stated) the Potency was inconclusive: 22.4 µM [inhibitor, partial curve, poor fit].
For `Cc1cn2c(=O)cc(COC(=O)c3cccc(NC(=O)COc4ccccc4Cl)c3)nc2s1`, the Potency was inconclusive: 8.91 µM [inhibitor, partial curve, poor fit].
In the case of `CCOC(=O)c1nc2ccccc2s1`, the “activity, negative = inhibition” value is reported as inactive: 101%.
With `CCOc1ccc2c(c1)-c1c(ssc1=S)C(C)(C)N2C(=O)CSC1=NCCS1` the Potency was inconclusive: 6.31 µM [inhibitor, partial curve, poor fit].
For `CCOc1ccc2nc(NC(=O)c3cccn(Cc4ccc(C)cc4)c3=O)sc2c1`, the “activity, negative = inhibition” value was inactive: -27%.
In the case of `COc1cccc(N2CCN(C(=O)c3ccc4c(=O)n(CCc5ccccc5)c(=O)[nH]c4c3)CC2)c1`, the Potency is reported as inconclusive: 20 µM [inhibitor, partial curve, poor fit].
In the case of `CCn1c(=O)oc2cc(NC(=O)CCl)ccc21`, the Potency is reported as inconclusive: 22.4 µM [inhibitor, partial curve, poor fit].
For `Cc1ccccc1-n1c(SC(C)C(=O)NCC2CCCO2)nnc1-c1ccncc1` (configuration not stated), the Potency was inconclusive: 25.1 µM [inhibitor, partial curve].
For `CC(=O)N(Cc1cc2cc(C)ccc2[nH]c1=O)c1cccc(C)c1C`, the “activity, negative = inhibition” value was inactive: -31.5%.
In the case of `CC(C)N(c1ccccc1)c1ccc(NC(=O)CCl)cc1`, the Potency is reported as inconclusive: 39.8 µM [inhibitor, partial curve, poor fit].
With `O=C(Nc1ccc(F)c(Cl)c1)N(Cc1ccc2c(c1)OCO2)C1CCN(Cc2ccccc2)CC1` the Potency was inconclusive: 14.1 µM [inhibitor, partial curve].
